Measured data: PubChem BioAssay AID743454 (Peter MacCallum Cancer Centre, 2014)
Purpose: 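Knock-downs lowering viability or raising caspase 3/7 activity in vorinostat-treated resistant cells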 (primary screen). Cell system: human HCT116-VR colon cancer cells, selected for vorinostat resistance. Knock-down reagent: siRNA pool against human genes, 40 nM siRNA pool. Duration: vorinostat for 24 h, read-out about 72 h after transfection. Treatment: vorinostat at 2.5 µM final. Measurement: 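Two measures, CellTiter-Fluor viability and luminescent caspase 3/7 activity, each as fold change against same-plate mock wells, mean of duplicates, then screen-wide robust z-score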. Direction: viability robust z-score: higher = more viable cells than screen typical; caspase robust z-score: higher = more caspase 3/7 activity than screen typical. Active means: 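a knock-down is a hit when classed RV1 or RV2 for lowered viability, or CA1 or CA2 for caspase activation; those lethal without drug were dropped; hits were retested singly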.
This is an unselected part of about 18,000 reagents tested. 450 of them (2.5%) were called active. 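Single biological run; no consistent viability z cut-off exists, so the class columns, not z-scores, define the calls.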 A number with no mark means an inactive call. Reagent sequences are not shown.

Which result is listed for SCFD1?
viability hit class: no change; caspase hit class: no change; viability robust z-score: -0.96; caspase robust z-score: -1

For KLHL11, what was measured?
viability hit class: no change; caspase hit class: no change; viability robust z-score: 0.44; caspase robust z-score: -0.9

How did the screen score POTED?
viability hit class: no change; caspase hit class: no change; viability robust z-score: -1.81; caspase robust z-score: 3.05

How did the screen score DNMBP?
viability hit class: no change; caspase hit class: no change; viability robust z-score: -0.17; caspase robust z-score: 0.38

For CHRD, how do the results read?
viability hit class: no change; caspase hit class: no change; viability robust z-score: 1.58; caspase robust z-score: -0.4

For ASH1L, how do the results read?
viability hit class: no change; caspase hit class: no change; viability robust z-score: -0.35; caspase robust z-score: 0.6

How did the screen score HSD17B13?
viability hit class: no change; caspase hit class: no change; viability robust z-score: 1.48; caspase robust z-score: 0.25

Which result is listed for DCBLD1?
viability hit class: no change; caspase hit class: no change; viability robust z-score: 1.85; caspase robust z-score: -0.6

For OS9, what was measured?
viability hit class: no change; caspase hit class: no change; viability robust z-score: 0.02; caspase robust z-score: -0.79

What did the screen give for H4C13?
viability hit class: no change; caspase hit class: no change; viability robust z-score: -0.5; caspase robust z-score: 0.73

With CCDC146, what does the deposit list?
viability hit class: no change; caspase hit class: no change; viability robust z-score: 0.36; caspase robust z-score: -0.88

With TENT5D, what does the deposit list?
viability hit class: no change; caspase hit class: no change; viability robust z-score: 1.6; caspase robust z-score: 0.93
